Measurements published in the supplement of paper PMC5949888.
Most values lie at the floor of the assay. Slopes are relative: functional sequences can read slightly below zero.

tested on: Saccharomyces cerevisiae PS128 hsf1 delta, HSF1(1-493) fusion; experiment: growth estimate (transactivation domain function in HSF1 fusion, heat-shock survival) (a.u. (slope of normalised read count over time)); higher = stronger growth at 37°C, i.e. more transactivation activity; details: library: random library
Experimental: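 Random 60-nt DNA library encoding peptides of up to 20 aa, fused to the C-terminus of yeast HSF1 residues 1-493 (C-terminal TAD deleted) and expressed from the native HSF1 promoter on a CEN plasmid in hsf1-deleted S. cerevisiae PS128. Cells were selected at 37°C on -trp 5-FOA plates for 0, 2, 4, 6 and 8 days and amplicons were sequenced. Growth estimate is the slope of a robust linear fit of total-sum-normalised read counts (normalised to the first time point) over time, using at least 2 replicates. Sequences are classed functional (TAD activity) above a threshold of -0.13, set from stop-codon control sequences.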

Substance	growth estimate
GGFSGLYDQF	< -0.25
GGGGGLMASIR	< -0.25
GGGHLGVFGSLTGNFFMGFR	< -0.25
GGGHRPSCEGAPYLA	< -0.25
GGGNWQHVRLVDNGVDGAGP	< -0.25
GGGRRRLGVFICHNGMSSVK	< -0.25
GGGSTPFLIKVW	< -0.25
GGGTDL	< -0.25
GGHFSVYIAITHPDRHSLPP	< -0.25
GGHRALWLRPAGPRRKIPPQ	< -0.25
GGICISFMCITSVLVY	< -0.25
GGILPGVQLIGEEGRGIYRP	< -0.25
GGIVPASNEAKVASYQGRGG	< -0.25
GGKGVAPRRPSNCPRWDSY	-0.246
GGKLAS	< -0.25
GGKN	< -0.25
GGKVKRLKVNVVRHRRCLRR	< -0.25
GGKWFRAEL	< -0.25
GGLGNFSLSESIGLSGSELA	< -0.25
GGLGSWLN	-0.243
GGLILPVRALSRAYCG	< -0.25
GGLLVR	< -0.25
GGLMSSGLTTRYSEVMMRAT	< -0.25
GGLNDVRIARPR	< -0.25

Substance	growth estimate
GGLNRSEHPGQTIWLRNLEV	-0.245
GGLPGISFYNRHALWGITLP	< -0.25
GGLRRG	< -0.25
GGMA	< -0.25
GGMLGIVFQRLAKARRTGYR	< -0.25
GGNENCREAIPIPQRRDCAW	< -0.25
GGNIHLRERTGPAGFPPITT	< -0.25
GGPAYWAWYISVSRSMLDSS	< -0.25
GGPI	< -0.25
GGPRNAVGRAYCPRYYRLLR	< -0.25
GGPTRFDLDVQWALARAPEL	-0.235
GGRCRNGTLKGAAHEDK	< -0.25
GGRHHHPTGETPSPPLIEVE	< -0.25
GGRSLPASFAGGSHSPLGRR	< -0.25
GGRSYKINAHRQSFSLGRRL	< -0.25
GGRWLMKLFDGDIT	< -0.25
GGRYGEHLGA	< -0.25
GGRYRSIEAFPVRDLVPISR	< -0.25
GGSECGSH	< -0.25
GGSLVKLNCVPYCHDQPIPG	< -0.25
GGSRLHVRRFYLTPQLGRIP	-0.248
GGST	< -0.25
GGSVNTFHRQCKI	< -0.25
GGSYQYMSRWIAMLI	< -0.25

Substance	growth estimate
GGTEVPTGVGRPAFRGRLMV	< -0.25
GGTGAGSLKALH	< -0.25
GGVFVSVAPSRHDRVAARRS	< -0.25
GGVQVNS	< -0.25
GGVRRSTDHINDNQWEHLNP	< -0.25
GGVVWVSYVFCRECTNMKRP	< -0.25
GGVWGSDLLA	< -0.25
GGYISRLQYDTSDQH	< -0.25
GGYQDYENVM	< -0.25
GGYRGESNI	< -0.25
GHAG	< -0.25
GHCGRTRCT	< -0.25
GHGPGKR	< -0.25
GHHECRFNVSH	< -0.25
GHIGPTRIYAFISNAFCLEE	< -0.25
GHL	< -0.25
GHLIDLKDPRRARATQKRRR	< -0.25
GHLNRRGSRFLRAKHFGICF	< -0.25
GHLVQHSVTRNPSGPVSDLA	< -0.25
GHMGKFEHGDLKGQLTTTSR	< -0.25
GHMQTARTRGRALERFSVCC	< -0.25
GHPAHETDW	< -0.25
GHPEHLEYFE	< -0.25
GHPPSWGEYKSKTPF	< -0.25

Substance	growth estimate
GHPSL	< -0.25
GHPWGIGPPLLVLGLPKASS	< -0.25
GHQASYGLMTGAGIARETHL	-0.247
GHRKTAKIIGRSVRFDIEIG	< -0.25
GHS	< -0.25
GHSIGLGVKPGQSATAPLSI	< -0.25
GHSLSCTKRA	< -0.25
GHSRDFWPPKFPSGW	< -0.25
GHTAVPSRPWGQSGLALE	< -0.25
GHV	< -0.25
GHVAFSLRSSRESYYSLFTG	< -0.25
GHVIAWFGRIRQSHIWRSRL	< -0.25
GHYNSRLGW	< -0.25
GIAKW	< -0.25
GIAPGPPSLQIPGSVRVLFT	< -0.25
GIASSKHAFRESSSGY	< -0.25
GICAFKIYKDGNQFTGGGGT	< -0.25
GICNCKKWSGV	< -0.25
GIDLKTKQEPACSCIVGAG	< -0.25
GIEATIHRP	< -0.25
GIFHHRALGFLGTTNLEGES	< -0.25
GIFKRIAFFVGSSSN	< -0.25
GIGCVRQVLEGGTRPALGTG	< -0.25
GIGPAALLSSRRGGLPGMIP	< -0.25

Substance	growth estimate
GIGRV	< -0.25
GIGSGLVQSHTVGLLFMGNR	< -0.25
GIHDVSGKANIRSTISLPTK	< -0.25
GIIDFPWTRVTLVLGGRLLA	< -0.25
GIILRRKGHDCESVRWRPCH	< -0.25
GIKVVSLVHNSNDYSY	< -0.25
GILASWPGQAITGS	< -0.25
GILGRAHSLLLCPAGVLR	< -0.25
GILRGAGQIANGPMVVMAGQ	< -0.25
GILRSFLSKAILGGLIWVGS	< -0.25
GIPEL	-0.231
GIQRIGARNAYGGTLGTGST	< -0.25
GIQVFSL	-0.237
GIRGLLG	< -0.25
GIS	< -0.25
GISEDGKSRGESEASAGRGC	< -0.25
GIVMPVFRWYAGRGRRNVAH	< -0.25
GIVRPFILAQILVIGFRPRQ	< -0.25
GIWSSLATACSVRSRSTVCG	< -0.25
GKALVL	< -0.25
GKATLFSSGRVNLHGVRVGC	< -0.25
GKAVSFIRIATTLGTGTSSR	< -0.25
GKCRADTYTEVG	< -0.25
GKDGPQTGDPPVDT	< -0.25

Substance	growth estimate
GKEVFVGRAKRGVILCASGS	-0.208
GKEVRRAVGGDTRHIAHPRM	< -0.25
GKFL	< -0.25
GKFPDAWRNFDSYLDGGVRV	< -0.25
GKGADPQHSARRCSNLGNVY	-0.231
GKGPVLMDVRKVLCLLSAVA	< -0.25
GKICLGNGPNEQELRAWLMH	< -0.25
GKIVQVSSRSSEHQ	< -0.25
GKK	< -0.25
GKLRRPDRKGKCHRGNGGCS	< -0.25
GKND	< -0.25
GKPS	< -0.25
GKPVRPVLHPAGGRGVS	-0.243
GKQVRWPRMGWSGGRRESP	< -0.25
GKRGKIC	< -0.25
GKRIPGSFSEISSHRCSPDE	< -0.25
GKRKGVRARRKRIARGFDRQ	< -0.25
GKRRQLPISPRDFSGIARAR	< -0.25
GKTLHWIELVRGAE	< -0.25
GKTV	< -0.25
GKVKEGFNLCLCVTEDIVSN	-0.243
GKVSIAVRSLDQPIGDWLAR	< -0.25
GKVWEGPGIQRQFSTECPRV	< -0.25
GKYA	< -0.25

3 records picked at random from those above, as already listed:
Substance	growth estimate
GKPS	< -0.25
GKRIPGSFSEISSHRCSPDE	< -0.25
GKTLHWIELVRGAE	< -0.25

A few values from above:
Value of GGKWFRAEL under growth estimate: < -0.25
Value of GISEDGKSRGESEASAGRGC under growth estimate: < -0.25

Later entries.

Substance	growth estimate
GKYQRHRRR	< -0.25
GLAGLSDAQPRGIASGS	< -0.25
GLARSWKCILMLLGRRRQA	< -0.25
GLCSRSENDWGRPHYVGRCW	< -0.25
GLD	< -0.25
GLDFGYFWDWGRGVTKVRAG	< -0.25
GLDSCRQPLARKQIG	< -0.25
GLDSTKTIDI	< -0.25
GLEERDQAFFEARRDGGVRS	< -0.25
GLEVAFRLARMGLSS	< -0.25
GLFGYMTTVRQR	< -0.25
GLFQVVAHGPRGVNRSLRPP	< -0.25
GLFTATCLQGHSVVCVKLTQ	< -0.25
GLFV	< -0.25
GLGAPR	< -0.25
GLGHWTLWAVGDRLCRC	< -0.25
GLGMPKSLRGKWEQENSMSG	< -0.25
GLGQKRIEDHFAAFSSCPFM	< -0.25
GLGRLG	< -0.25
GLGSFEGRDRKLRSRSTSIC	< -0.25
GLGSLSMLTTDSRCRMRGRK	-0.245
GLHRVIQKTVR	< -0.25
GLIG	< -0.25
GLIHSDKFTRTHGSGFVASW	< -0.25

Taken from above for reference:
Substance	growth estimate
GGKWFRAEL	< -0.25
GGLGNFSLSESIGLSGSELA	< -0.25

Continued.

Substance	growth estimate
GLILWIRVLLRDPLCVRSRG	-0.229
GLIQPVCYAINTRASTGLKS	< -0.25
GLISLISYLSILPHPREHVA	< -0.25
GLISRAFTSRPNGAFYPVRL	< -0.25
GLK	< -0.25
GLKAGSKQRSHTPVERGFLM	< -0.25
GLKGWLKTVLTVGNF	< -0.25
GLKQGRIWTR	< -0.25
GLLGKVAER	< -0.25
GLLSTIILRRVVHVNGEVAP	< -0.25
GLLTPSNTTGACGSLEVWE	< -0.25
GLLVIRTARSKGA	< -0.25
GLLVYITHATILSLRYSPQE	< -0.25
GLM	0.183
GLMACWENVAHWLPKTCAVP	< -0.25
GLMKESPSLAPEFHCEHNFP	< -0.25
GLMQLIRPKLA	0.0946
GLNITDC	< -0.25
GLP	< -0.25
GLPLGLAALWQGQGYQGPWH	< -0.25
GLPPA	< -0.25
GLPPVRVLQQPLSRKRGTAH	< -0.25
